Test results taken from paper PMC9352765.
These are yes or no findings as the source states them, for the method shown. In cells and extracts the contact can be indirect. Binding calls can cover weak binding; strength is not graded here.

Target: T1, Syt13-BirA recombinant protein (mouse) (UniProt Q9EQT6)
T1 sequence: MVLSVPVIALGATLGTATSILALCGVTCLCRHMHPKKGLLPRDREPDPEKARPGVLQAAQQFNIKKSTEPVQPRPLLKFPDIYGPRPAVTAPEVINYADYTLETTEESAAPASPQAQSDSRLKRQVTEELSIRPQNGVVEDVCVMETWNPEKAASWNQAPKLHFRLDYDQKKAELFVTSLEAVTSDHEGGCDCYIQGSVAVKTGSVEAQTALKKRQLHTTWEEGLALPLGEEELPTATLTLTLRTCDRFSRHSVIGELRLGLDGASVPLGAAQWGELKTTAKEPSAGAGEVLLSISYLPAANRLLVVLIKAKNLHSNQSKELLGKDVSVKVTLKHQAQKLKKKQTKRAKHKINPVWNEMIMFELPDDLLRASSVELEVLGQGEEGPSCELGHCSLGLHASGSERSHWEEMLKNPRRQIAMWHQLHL
Experiment: co-IP; MDCK cells; called co-IP in the results; the methods tell only of the precipitation on NeutrAvidin beads of the BioID approach, followed by western blot

binding, binds:
hepatocyte growth factor-regulated tyrosine kinase substrate (canine (endogenous in MDCK)), Small GTPase Rab5 (canine (endogenous in MDCK)), Small GTPase Rab11 (canine (endogenous in MDCK)), Small GTPase Rab7 (canine (endogenous in MDCK))
